No constants are given. Whether binding was seen depends on the method and setting. Binding seen in cells or lysates may run through a third protein. Some results given as binding are weak or reduced against the parent protein; the word gives no strength.

Amino acid sequences for entries named in this document (tags omitted). A change or cut given only in a name is not applied to a line headed by its entry. Chains listed by the source or under a name are the forms on record and can include a tag or linker. Residues count along the entry.
UniProt Q04695: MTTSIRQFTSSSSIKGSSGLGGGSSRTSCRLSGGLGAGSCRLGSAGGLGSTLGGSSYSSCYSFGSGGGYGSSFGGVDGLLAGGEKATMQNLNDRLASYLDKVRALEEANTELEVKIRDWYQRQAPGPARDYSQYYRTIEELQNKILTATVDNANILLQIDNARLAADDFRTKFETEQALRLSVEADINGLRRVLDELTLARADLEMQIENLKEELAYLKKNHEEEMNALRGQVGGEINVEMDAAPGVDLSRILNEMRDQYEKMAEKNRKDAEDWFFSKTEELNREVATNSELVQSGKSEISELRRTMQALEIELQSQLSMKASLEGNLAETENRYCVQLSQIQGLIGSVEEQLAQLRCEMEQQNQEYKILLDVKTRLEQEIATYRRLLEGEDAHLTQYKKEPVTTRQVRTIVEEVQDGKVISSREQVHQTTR
UniProt O14980: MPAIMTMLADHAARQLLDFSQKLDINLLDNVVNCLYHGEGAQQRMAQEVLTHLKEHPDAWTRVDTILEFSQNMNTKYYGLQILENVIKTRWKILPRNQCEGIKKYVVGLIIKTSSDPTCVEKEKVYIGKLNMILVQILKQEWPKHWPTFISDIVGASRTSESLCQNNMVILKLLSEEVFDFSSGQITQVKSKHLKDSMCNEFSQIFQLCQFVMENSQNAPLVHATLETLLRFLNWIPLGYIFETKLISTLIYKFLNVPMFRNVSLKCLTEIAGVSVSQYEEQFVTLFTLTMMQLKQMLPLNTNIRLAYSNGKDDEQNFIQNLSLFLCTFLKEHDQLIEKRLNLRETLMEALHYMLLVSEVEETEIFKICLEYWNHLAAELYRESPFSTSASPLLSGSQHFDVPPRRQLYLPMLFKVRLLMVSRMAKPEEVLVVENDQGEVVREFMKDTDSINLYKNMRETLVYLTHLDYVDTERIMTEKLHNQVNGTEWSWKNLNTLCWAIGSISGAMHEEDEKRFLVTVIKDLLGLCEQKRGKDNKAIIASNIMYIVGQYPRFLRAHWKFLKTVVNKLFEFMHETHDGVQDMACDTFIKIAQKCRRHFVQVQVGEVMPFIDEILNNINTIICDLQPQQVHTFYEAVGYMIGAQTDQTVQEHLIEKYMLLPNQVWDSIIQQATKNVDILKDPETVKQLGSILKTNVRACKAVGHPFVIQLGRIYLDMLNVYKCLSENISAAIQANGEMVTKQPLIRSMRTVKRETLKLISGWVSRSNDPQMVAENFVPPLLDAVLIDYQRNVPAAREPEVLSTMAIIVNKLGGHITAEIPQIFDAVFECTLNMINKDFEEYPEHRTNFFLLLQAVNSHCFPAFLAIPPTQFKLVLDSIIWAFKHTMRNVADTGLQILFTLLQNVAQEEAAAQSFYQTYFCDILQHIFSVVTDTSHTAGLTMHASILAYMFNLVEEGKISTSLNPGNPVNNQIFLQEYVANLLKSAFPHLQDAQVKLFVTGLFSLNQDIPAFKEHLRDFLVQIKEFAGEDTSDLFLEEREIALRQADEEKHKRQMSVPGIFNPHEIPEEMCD
UniProt Q14974: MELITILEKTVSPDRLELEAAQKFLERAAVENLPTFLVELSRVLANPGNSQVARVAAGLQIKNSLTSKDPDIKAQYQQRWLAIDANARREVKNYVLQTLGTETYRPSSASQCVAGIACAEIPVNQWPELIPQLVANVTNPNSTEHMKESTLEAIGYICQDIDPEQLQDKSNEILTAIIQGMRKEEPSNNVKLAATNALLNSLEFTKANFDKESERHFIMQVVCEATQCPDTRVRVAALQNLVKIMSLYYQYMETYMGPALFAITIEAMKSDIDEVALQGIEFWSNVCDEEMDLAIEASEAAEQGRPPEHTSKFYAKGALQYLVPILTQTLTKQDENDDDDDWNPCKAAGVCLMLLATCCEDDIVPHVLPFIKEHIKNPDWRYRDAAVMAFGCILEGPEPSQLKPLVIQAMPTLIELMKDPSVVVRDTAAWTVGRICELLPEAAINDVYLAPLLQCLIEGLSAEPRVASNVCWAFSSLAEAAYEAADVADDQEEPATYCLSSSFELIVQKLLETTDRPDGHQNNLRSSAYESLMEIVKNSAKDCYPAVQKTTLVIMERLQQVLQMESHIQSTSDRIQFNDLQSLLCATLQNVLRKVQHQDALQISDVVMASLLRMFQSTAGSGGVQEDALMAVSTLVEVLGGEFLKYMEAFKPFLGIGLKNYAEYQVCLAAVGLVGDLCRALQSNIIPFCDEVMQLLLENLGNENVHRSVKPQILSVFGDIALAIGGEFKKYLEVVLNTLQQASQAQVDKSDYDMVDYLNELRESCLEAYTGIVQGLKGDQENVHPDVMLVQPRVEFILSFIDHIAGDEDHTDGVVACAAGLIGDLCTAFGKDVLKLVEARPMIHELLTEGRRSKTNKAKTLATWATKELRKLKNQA
lamin A (P02545, residues 1-646): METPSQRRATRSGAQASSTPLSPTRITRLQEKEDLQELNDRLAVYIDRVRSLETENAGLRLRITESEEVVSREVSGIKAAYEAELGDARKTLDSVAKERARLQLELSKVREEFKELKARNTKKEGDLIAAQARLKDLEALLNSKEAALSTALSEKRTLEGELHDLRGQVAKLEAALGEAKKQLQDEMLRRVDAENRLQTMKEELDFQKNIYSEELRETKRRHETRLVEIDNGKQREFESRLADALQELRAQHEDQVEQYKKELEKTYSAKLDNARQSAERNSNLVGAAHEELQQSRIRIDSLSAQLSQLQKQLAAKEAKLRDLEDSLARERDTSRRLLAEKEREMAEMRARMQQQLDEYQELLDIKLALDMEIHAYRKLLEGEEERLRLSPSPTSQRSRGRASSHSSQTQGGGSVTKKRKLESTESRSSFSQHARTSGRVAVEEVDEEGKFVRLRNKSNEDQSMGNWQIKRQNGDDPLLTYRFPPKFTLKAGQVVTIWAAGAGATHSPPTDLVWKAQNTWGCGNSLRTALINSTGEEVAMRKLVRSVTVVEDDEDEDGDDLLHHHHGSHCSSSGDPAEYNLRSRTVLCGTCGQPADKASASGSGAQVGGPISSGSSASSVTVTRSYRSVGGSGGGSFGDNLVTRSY
lamin C (P02545-2, form named): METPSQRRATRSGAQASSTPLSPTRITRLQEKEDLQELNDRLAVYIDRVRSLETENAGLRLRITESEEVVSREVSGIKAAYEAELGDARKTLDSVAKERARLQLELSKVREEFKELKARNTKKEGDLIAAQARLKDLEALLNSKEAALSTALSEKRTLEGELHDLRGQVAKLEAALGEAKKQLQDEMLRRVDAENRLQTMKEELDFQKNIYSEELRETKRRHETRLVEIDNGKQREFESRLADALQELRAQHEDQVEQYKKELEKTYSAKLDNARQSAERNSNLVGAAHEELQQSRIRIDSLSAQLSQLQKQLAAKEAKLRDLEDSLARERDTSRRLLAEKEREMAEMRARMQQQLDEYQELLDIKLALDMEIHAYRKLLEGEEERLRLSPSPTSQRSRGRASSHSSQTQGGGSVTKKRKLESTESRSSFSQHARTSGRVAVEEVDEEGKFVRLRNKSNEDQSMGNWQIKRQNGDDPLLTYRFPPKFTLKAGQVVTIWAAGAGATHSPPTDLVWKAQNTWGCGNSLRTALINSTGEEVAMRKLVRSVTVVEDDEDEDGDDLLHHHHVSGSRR
UniProt P20700: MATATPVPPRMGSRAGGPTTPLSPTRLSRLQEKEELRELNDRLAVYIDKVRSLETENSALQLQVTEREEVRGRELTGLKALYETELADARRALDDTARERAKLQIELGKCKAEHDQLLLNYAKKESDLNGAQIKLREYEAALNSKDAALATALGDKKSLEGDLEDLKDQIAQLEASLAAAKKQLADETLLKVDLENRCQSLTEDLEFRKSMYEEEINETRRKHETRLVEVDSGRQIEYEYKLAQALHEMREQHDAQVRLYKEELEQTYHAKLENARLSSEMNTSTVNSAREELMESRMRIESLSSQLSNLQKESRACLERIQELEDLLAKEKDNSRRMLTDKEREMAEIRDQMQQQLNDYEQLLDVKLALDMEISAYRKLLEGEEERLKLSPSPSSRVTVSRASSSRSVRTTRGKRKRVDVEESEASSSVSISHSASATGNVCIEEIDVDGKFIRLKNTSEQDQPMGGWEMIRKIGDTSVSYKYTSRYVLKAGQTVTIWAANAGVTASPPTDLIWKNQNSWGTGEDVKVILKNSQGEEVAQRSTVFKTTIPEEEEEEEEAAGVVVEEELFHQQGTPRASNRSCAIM

We go through five substances from article doi:10.1101/2020.07.16.206730.

For this assay, the target named is Keratin 17 (human (endogenous in HeLa and A431)) (UniProt Q04695). The experiment in a line: co-IP.
With exportin-1 (from UniProt O14980 1-1071), the binding result is listed as “binds”. Next, “karyopherin β1 (from UniProt Q14974 1-876)”: “binds”; lamin A (from UniProt P02545 1-646): “binds”. The result for lamin B1 (from UniProt P20700 1-586) reads “binds”; that for lamin C (from UniProt P02545-2 1-572), “no binding”.
